Experimental data reported in patent publication US20110269817A1, “COMPOSITIONS AND METHODS RELATED TO SIRT1 FUNCTION” (The Regents of the University of California, priority 2008, published 2011).
No constants are given. Whether binding was seen depends on the method and setting. Binding seen in cells or lysates may run through a third protein. Some entries that bind do so weakly or less than the wild type.

How the values were obtained:
[1] = molecular target: T1, Endogenous CLOCK of mouse liver and MEFs (mouse) (UniProt O08785); assay: coimmunoprecipitation (FIG. 5)
T1 sequence (looked up): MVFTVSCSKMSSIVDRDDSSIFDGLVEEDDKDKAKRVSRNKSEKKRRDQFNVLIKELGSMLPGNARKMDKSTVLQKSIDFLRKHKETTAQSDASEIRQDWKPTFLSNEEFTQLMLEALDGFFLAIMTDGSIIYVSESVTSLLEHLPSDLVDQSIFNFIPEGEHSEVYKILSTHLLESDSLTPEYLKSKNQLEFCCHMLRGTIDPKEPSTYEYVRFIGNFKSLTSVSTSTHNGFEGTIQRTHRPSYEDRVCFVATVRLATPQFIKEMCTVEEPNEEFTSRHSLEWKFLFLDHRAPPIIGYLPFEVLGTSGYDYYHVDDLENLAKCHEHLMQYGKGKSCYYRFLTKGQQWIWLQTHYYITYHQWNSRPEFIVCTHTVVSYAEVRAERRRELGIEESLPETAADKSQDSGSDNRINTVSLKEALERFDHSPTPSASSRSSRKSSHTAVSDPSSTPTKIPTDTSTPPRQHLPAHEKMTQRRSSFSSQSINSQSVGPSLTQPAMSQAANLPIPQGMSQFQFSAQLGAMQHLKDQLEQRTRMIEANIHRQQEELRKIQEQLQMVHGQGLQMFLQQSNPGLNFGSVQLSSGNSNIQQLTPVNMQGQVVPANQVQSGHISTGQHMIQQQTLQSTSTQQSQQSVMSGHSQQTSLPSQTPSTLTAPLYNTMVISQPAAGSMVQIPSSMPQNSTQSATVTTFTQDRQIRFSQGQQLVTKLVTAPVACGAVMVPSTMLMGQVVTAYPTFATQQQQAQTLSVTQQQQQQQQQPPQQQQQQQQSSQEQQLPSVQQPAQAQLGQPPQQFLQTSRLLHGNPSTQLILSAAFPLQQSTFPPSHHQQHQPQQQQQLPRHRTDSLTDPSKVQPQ

[2] = molecular target: T1, Endogenous CLOCK of mouse liver and MEFs (mouse); assay: coimmunoprecipitation of endogenous proteins from mouse liver extracts (FIG. 5B)
[3] = molecular target: T1, Endogenous CLOCK of mouse liver and MEFs (mouse); assay: coimmunoprecipitation of SIRT1 from MEFs with anti-CLOCK antibody at various times after serum shock (FIG. 5C)

binding [1]: binds | binding [2]: binds | binding [3]: binds
B1: Endogenous (native) SIRT1 of mouse liver and MEFs (enzyme, UniProt Q923E4 2-737, looked up)
chain: ADEVALALQAAGSPSAAAAMEAASQPADEPLRKRPRRDGPGLGRSPGEPSAAVAPAAAGCEAASAAAPAALWREAAGAAASAEREAPATAVAGDGDNGSGLRREPRAADDFDDDEGEEEDEAAAAAAAAAIGYRDNLLLTDGLLTNGFHSCESDDDDRTSHASSSDWTPRPRIGPYTFVQQHLMIGTDPRTILKDLLPETIPPPELDDMTLWQIVINILSEPPKRKKRKDINTIEDAVKLLQECKKIIVLTGAGVSVSCGIPDFRSRDGIYARLAVDFPDLPDPQAMFDIEYFRKDPRPFFKFAKEIYPGQFQPSLCHKFIALSDKEGKLLRNYTQNIDTLEQVAGIQRILQCHGSFATASCLICKYKVDCEAVRGDIFNQVVPRCPRCPADEPLAIMKPEIVFFGENLPEQFHRAMKYDKDEVDLLIVIGSSLKVRPVALIPSSIPHEVPQILINREPLPHLHFDVELLGDCDVIINELCHRLGGEYAKLCCNPVKLSEITEKPPRPQKELVHLSELPPTPLHISEDSSSPERTVPQDSSVIATLVDQATNNNVNDLEVSESSCVEEKPQEVQTSRNVENINVENPDFKAVGSSTADKNERTSVAETVRKCWPNRLAKEQISKRLEGNQYLFVPPNRYIFHGAEVYSDSEDDVLSSSSCGSNSDSGTCQSPSLEEPLEDESEIEEFYNGLEDDTERPECAGGSGFGADGGDQEVVNEAIATRQELTDVNYPSDKS
